Laboratory results published in PubChem BioAssay AID504467 (National Center for Advancing Translational Sciences (NCATS), 2011).
Among all 330,000 compounds or so, about 7,700 (2.3%) were called active. This list was built around the results that the source calls inconclusive (neither active nor inactive); the mix of calls is not that of the screen. The call rests on the fitted dose curve; in most records, active means well fitted inhibition curve with a large enough effect; inconclusive means small, poorly fitted or top-dose-only effect, or effect the other way; inactive means flat fitted curve, though single readings scatter. A potency beside an inconclusive call is a rough fit, not a confirmed value.

experiment: qHTS screen for small molecules that inhibit ELG1-dependent DNA repair in human embryonic kidney (HEK293T) cells expressing luciferase-tagged ELG1; details: HEK293T ELG1-luciferase reporter, luminescence, 16 h, DNA damage induced by 5-fluorouridine; series mostly up to 46.1 µM; further: nearly all actives have a fitted effect of over 55% in size
Summary of the method: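 Cells (2,000 per well) received 5-fluorouridine plus test compound or DMSO and were incubated 16 hr at 37 °C, 5% CO2. Luciferase activity was read by luminescence 30 min after ONE-Glo addition; signal suppression marked inhibition of damage-induced ELG1 function.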
Potency means the concentration at half of the fitted maximal effect.

Row | Compound | Potency
1 | CCN(c1cccc(C)c1)C1C(=O)c2ccccc2N1C(C)=O (stereo not given) | inactive
2 | O=[N+]([O-])c1cccnc1N1CCN(c2ccc(F)cc2)CC1 | inactive
3 | CC(=O)N1CCN(c2ccccc2NC(=O)Cc2ccc(Cl)cc2)CC1 | inconclusive: 10.3 µM [inhibitor, partial curve, poor fit]
4 | c1ccc2cc(CNCc3cccc4ccccc34)ccc2c1 | inactive
5 | C=CCONC(=O)c1cc(OCC(F)(F)F)ccc1OCC(F)(F)F | inconclusive: 6.31 µM [inhibitor, partial curve]
6 | c1ccc(-c2nnc(-c3ccccc3)o2)cc1 | inconclusive: 9.2 µM [activator, partial curve]
7 | Cc1cccc(C2c3[nH]c4ccccc4c3CCN2C(=O)CN2CCOC2=O)n1 (stereo not given) | inactive
8 | Cn1c(Sc2ccc(Cl)cc2)c(C=O)c2ccccc21 | active: 7.31 µM
9 | COc1ccc(N/C(=N\c2nc(C)cc(C)n2)NC(C)=O)cc1OC | inconclusive: 1.64 µM [inhibitor, single point]
10 | CCOc1cc(C2C3=C(CCCC3=O)Nc3ccc4ncccc4c32)ccc1O (stereo not given) | inactive
11 | CC(C)Cn1c(SC(C)C(=O)Nc2ccc3c(c2)OCCO3)nc2ccccc2c1=O (stereo not given) | inconclusive: 15.8 µM [inhibitor, partial curve]
12 | CNC(=O)COC(=O)CCC(=O)c1cccs1 | inactive
13 | COC(=O)c1sc(N)c(C(=O)OC)c1Cn1ncc(Cl)c(Cl)c1=O | inactive
14 | CCN(CC)S(=O)(=O)c1cc(F)ccc1OC | inactive
15 | c1ccc(Nc2cc(-c3ccccc3)nc3ncnn23)cc1 | inactive
16 | S=C(NCCc1ccccc1)N1CCCCC1 | inconclusive: 23.1 µM [activator, partial curve]
17 | COc1cccc(CNC(=O)CN(C)S(=O)(=O)c2cccc3cccnc23)c1 | inactive
18 | CC(C)CC1NC(=O)c2cc(Cl)ccc2-n2c1nc1ccccc1c2=O (stereo not given) | inactive
19 | CCOC(=O)C1CCCN(C(=O)c2sc3nc(-c4ccc(OC)cc4)cn3c2C)C1 (stereo not given) | inconclusive: 25.9 µM [inhibitor, partial curve, poor fit]
20 | C#Cc1ccc([C@@H]2C=C(C(=O)N3CCOCC3)O[C@H](OCCCCO)C2)cc1 | inactive
21 | COC(=O)C(C)Oc1ccc(-c2nccc(-c3ccc(F)cc3)n2)cc1 (stereo not given) | inactive
22 | CN1CCN(c2ccc(-c3ccnn3C(=O)Nc3ccccc3)cc2)CC1 | inconclusive: 0.651 µM [activator, full curve, poor fit]
23 | COc1ccc(OC)c(C2=C/C(=C/c3ccccn3)C(=O)O2)c1 | inactive
24 | CN(CCCC1CCCC1)C(=O)CCc1nnc(-c2ccccc2)o1 | inconclusive: 13 µM [activator, partial curve]

Row | Compound | Potency
25 | O=C(COc1ccccc1[N+](=O)[O-])Nc1ccc2c(c1)OCO2 | inconclusive: 10.3 µM [activator, partial curve]
26 | COc1ccc(-c2c(-c3cc(OC)cc(OC)c3)sc3ccc(OC)cc23)cc1 | inconclusive: 20.6 µM [activator, partial curve, poor fit]
27 | CCC(=O)NC(=S)Nc1ccc(NC(=O)c2cccnc2)cc1 | inconclusive: 23.1 µM [inhibitor, single point]
28 | N/C(=N\OS(=O)(=O)c1ccc(Cl)cc1)c1ccccn1 | inconclusive: 29.1 µM [activator, single point]
29 | CCOC(=O)C1(Cc2cccc(OC)c2)CCN(Cc2cnc(N)nc2)CC1 | inactive
30 | C#CCOCCOCCOCCNc1nc(N2CCN(C(=O)[C@H](Cc3ccc(O)cc3)n3cc(C(N)CC(C)C)nn3)CC2)nc(N2CCN(C(=O)[C@H](CCC(=O)O)n3cc(C(N)[C@H](C)CC)nn3)CC2)n1 (stereo not given in full) | inconclusive: 8.2 µM [activator, partial curve, poor fit]
31 | O=C(CSc1ccc(-c2ccco2)nn1)c1ccc(F)cc1 | inconclusive: 20.6 µM [activator, partial curve]
32 | CC(C)(Cc1ccc(O)cc1)NC(=O)CC(=O)N/N=C/c1ccc(Cl)cc1 | inactive
33 | Cc1cccc(COCC(CC(C)C)N2CCN(C(=O)c3ccc(C(F)(F)F)cc3)CCC2=O)c1 (stereo not given) | inactive
34 | CS(=O)(=O)Oc1ccc2c(c1)O/C(=C\c1cccc([N+](=O)[O-])c1)C2=O | active: 18.3 µM
35 | N#Cc1ccc(NCC(=O)Nc2ccc3c(c2)OCCO3)cc1 | inactive
36 | CCCc1c(C(=O)N/N=C/c2ccco2)nnn1-c1nonc1N | inconclusive: 9.2 µM [activator, partial curve]
37 | O=C(Cc1ccc2c(c1)OCO2)NN=Cc1ccc([N+](=O)[O-])o1 | active: 16.4 µM
38 | C#CCNC(=O)C1=C[C@@H](c2ccc(C(F)(F)F)cc2)[C@H](CCCO)[C@@H](OCC)O1 | inactive
39 | CC(=O)c1ccc(Oc2nc(-c3cccnc3)nc3ccccc23)cc1 | inconclusive: 16.4 µM [inhibitor, single point]
40 | COc1ccc(S(=O)(=O)N2CCCCC2)cc1NC(=O)c1c(F)cccc1Cl | inactive
41 | O=C(Nc1cc(C(F)(F)F)ccc1-n1cncn1)c1ccc(Cl)cc1 | inconclusive: 23.1 µM [inhibitor, partial curve, poor fit]
42 | CC(C)OC(=O)c1cc(NC(=O)C2C3CCC(O3)C2C(=O)O)cc(C(=O)OC(C)C)c1 (stereo not given) | inconclusive: 13 µM [activator, partial curve]
43 | COC(=O)C(C)(C)ONC(=O)Nc1ccc(Br)cc1 | inconclusive: 18.4 µM [activator, partial curve, poor fit]
44 | O=C(CSc1nnnn1-c1ccc(O)cc1)c1cc2ccccc2o1 | inconclusive: 1.83 µM [inhibitor, partial curve, poor fit]
45 | Cc1ccc(NC(=O)COC(=O)CN2C(=O)NC(C)(C)C2=O)cc1S(=O)(=O)N1CCOCC1 | inconclusive: 20.6 µM [activator, partial curve, poor fit]
46 | CC(Nc1nc(-c2ccccc2O)nc2ccccc12)c1ccccc1 (stereo not given) | inconclusive: 2.59 µM [activator, partial curve]
47 | O=C(Nc1ccc2c(c1)OCCO2)C1CCCN(c2ncccn2)C1 (stereo not given) | inconclusive: 1.64 µM [activator, partial curve]
48 | CC1=C(C(=O)OC2CCCCC2)C(c2cccnc2)n2nnnc2N1 (stereo not given) | inactive

Some of these compounds in order of length of the SMILES, largest number first:
Row | Compound | Potency
11 | CC(C)Cn1c(SC(C)C(=O)Nc2ccc3c(c2)OCCO3)nc2ccccc2c1=O (stereo not given) | inconclusive: 15.8 µM [inhibitor, partial curve]
18 | CC(C)CC1NC(=O)c2cc(Cl)ccc2-n2c1nc1ccccc1c2=O (stereo not given) | inactive
44 | O=C(CSc1nnnn1-c1ccc(O)cc1)c1cc2ccccc2o1 | inconclusive: 1.83 µM [inhibitor, partial curve, poor fit]

More entries:

Row | Compound | Potency
49 | CC1CCCN(CC(=O)Nc2cc(Cl)ccc2Oc2ccccc2)C1 (stereo not given) | inconclusive: 23.1 µM [inhibitor, partial curve, poor fit]
50 | CCS(=O)(=O)c1ccc2oc(SCC(=O)NCCC3=CCCCC3)nc2c1 | inconclusive: 23.1 µM [inhibitor, single point]
51 | Cc1ccc(Nc2nc(N)nc(CSC(=S)N3CCOCC3)n2)cc1 | inconclusive: 10.3 µM [activator, partial curve]
52 | Cc1cc(C)c(S(=O)(=O)N2CCN(C(=O)c3cc4ccccc4oc3=O)CC2)c(C)c1 | inconclusive: 20.6 µM [inhibitor, single point]
53 | COc1ccc(Nc2nc(N3CCCC3)c3ccccc3n2)cc1 | active: 9.2 µM
54 | C[C@H](CO)N1C[C@H](C)[C@@H](CN(C)C(=O)Nc2ccccc2)Oc2ccc(NC(=O)Nc3ccc(C(F)(F)F)cc3)cc2C1=O | inactive
55 | Cc1ccc(/C=C(\C#N)C(=O)Nc2cccc3ncccc23)o1 | inconclusive: 10.3 µM [inhibitor, partial curve]
56 | COC(=O)c1ccccc1NC(=O)CSc1nnc(-c2ccncc2)o1 | inconclusive: 29.1 µM [activator, partial curve, poor fit]
57 | Cc1ccnc(NC(=O)CNC(=O)Cc2cccc3ccccc23)c1 | inconclusive: 11.6 µM [activator, single point]
58 | Cc1cc(Cl)ccc1OCCCC(=O)NO | inconclusive: 25.9 µM [activator, single point]
59 | Cc1ccc(S(=O)(=O)N2CCCCC2CCNC(=O)C(=O)NCc2ccccc2)cc1 (stereo not given) | inactive
60 | C=CCNc1ncnc2c1[nH]c1ccccc12 | inconclusive: 10.3 µM [inhibitor, partial curve]
61 | Cc1nc(-c2cccc(NC(=O)c3cccc(S(=O)(=O)N4CCCC4)c3)c2)cs1 | active: 18.3 µM
62 | Cc1nonc1NC(=O)c1oc2ccccc2c1C | inconclusive: 16.4 µM [activator, partial curve]
63 | O=C(NCCN1CCOCC1)c1ccc(Cl)cc1 | inconclusive: 20.6 µM [activator, partial curve, poor fit]
64 | COc1cc(CNCc2ccccn2)ccc1OCc1ccc(Cl)c(Cl)c1 | inconclusive: 16.4 µM [activator, single point]
65 | Cc1ccccc1NC(=O)c1sc(NC(=O)COc2ccccc2)c(C#N)c1C | active: 23.1 µM
66 | Cc1cccc(C)c1NC(=O)COC(=O)c1c2c(nc3ccccc13)/C(=C\c1ccc3c(c1)OCO3)CCC2 | inconclusive: 20.6 µM [inhibitor, single point]
67 | CC1=CC(=O)C(C(C)C)=C/C1=N\OC(=O)c1cccc2nc(C)oc12 | inconclusive: 16.4 µM [activator, single point]
68 | COc1nccnc1NS(=O)(=O)c1ccc(N=Cc2c(C)[nH]n(-c3ccc(Cl)cc3)c2=O)cc1 | inconclusive: 25.9 µM [activator, partial curve, poor fit]
69 | Cc1[nH]c2ccccc2c1/C=N/n1cnnc1 | inconclusive: 35.5 µM [activator, partial curve, poor fit]
70 | Cc1cccc(OCC(=O)Nc2cccc(O)c2)c1 | inconclusive: 14.6 µM [activator, partial curve]
